Some of these results come from one statement about several compounds together.
biological target: T1, Aurora-2 (Homo sapiens, UniProt O14965); test: Ki determination for the inhibition of Aurora-2 (coupled enzyme assay); type: biochemical; conditions: 70 nM Aurora-2, peptide LRRASLG, 30° C
T1 sequence (O14965 1-403): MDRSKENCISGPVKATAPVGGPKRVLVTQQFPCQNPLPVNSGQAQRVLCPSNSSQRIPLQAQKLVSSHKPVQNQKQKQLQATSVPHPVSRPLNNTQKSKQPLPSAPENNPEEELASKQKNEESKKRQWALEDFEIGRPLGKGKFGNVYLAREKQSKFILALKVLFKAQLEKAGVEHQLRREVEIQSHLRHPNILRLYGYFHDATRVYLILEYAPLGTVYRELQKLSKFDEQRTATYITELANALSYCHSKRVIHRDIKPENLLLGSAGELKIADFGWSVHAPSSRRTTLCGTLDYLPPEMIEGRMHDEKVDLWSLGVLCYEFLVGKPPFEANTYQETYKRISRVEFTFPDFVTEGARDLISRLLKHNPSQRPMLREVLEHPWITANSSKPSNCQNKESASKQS
Procedure: Compounds were screened in the following manner for their ability to inhibit Aurora-2 using a standard coupled enzyme assay (Fox et al (1998) Protein Sci 7, 2249).
To an assay stock buffer solution containing 0.1M HEPES 7.5, 10 mM MgCl2, 1 mM DTT, 25 mM NaCl, 2.5 mM phosphoenolpyruvate, […], 30 mg/ml pyruvate kinase, 10 mg/ml lactate dehydrogenase, […], and 800 μM peptide (LRRASLG, American Peptide, Sunnyvale, Calif.) was added a DMSO solution of a compound of the present invention to a final concentration of 30 μM. The resulting mixture was incubated at 30° C. for 10 min. The reaction was initiated by the addition of 10 μL of Aurora-2 stock solution to give a final concentration of 70 nM in the assay. The rates of reaction were obtained by monitoring absorbance at 340 nm over a 5 minute read time at 30° C. using a BioRad Ultramark plate reader (Hercules, Calif.). The Ki values were determined from the rate data as a function of inhibitor concentration.

Sequences of proteins named here, by UniProt entry; tags and fusion partners are left off. A change or cut given only in a name is not applied to a line headed by its entry.
UniProt P28482, whole entry: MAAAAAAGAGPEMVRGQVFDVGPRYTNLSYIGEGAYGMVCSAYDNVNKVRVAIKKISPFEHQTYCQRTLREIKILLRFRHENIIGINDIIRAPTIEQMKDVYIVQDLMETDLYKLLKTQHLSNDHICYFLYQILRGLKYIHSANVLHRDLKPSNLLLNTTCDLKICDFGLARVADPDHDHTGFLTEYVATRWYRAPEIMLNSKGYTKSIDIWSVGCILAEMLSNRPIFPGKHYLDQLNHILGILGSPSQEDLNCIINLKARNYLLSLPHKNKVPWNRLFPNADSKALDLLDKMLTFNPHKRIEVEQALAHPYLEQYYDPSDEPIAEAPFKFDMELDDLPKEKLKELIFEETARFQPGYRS
UniProt P12931, whole entry: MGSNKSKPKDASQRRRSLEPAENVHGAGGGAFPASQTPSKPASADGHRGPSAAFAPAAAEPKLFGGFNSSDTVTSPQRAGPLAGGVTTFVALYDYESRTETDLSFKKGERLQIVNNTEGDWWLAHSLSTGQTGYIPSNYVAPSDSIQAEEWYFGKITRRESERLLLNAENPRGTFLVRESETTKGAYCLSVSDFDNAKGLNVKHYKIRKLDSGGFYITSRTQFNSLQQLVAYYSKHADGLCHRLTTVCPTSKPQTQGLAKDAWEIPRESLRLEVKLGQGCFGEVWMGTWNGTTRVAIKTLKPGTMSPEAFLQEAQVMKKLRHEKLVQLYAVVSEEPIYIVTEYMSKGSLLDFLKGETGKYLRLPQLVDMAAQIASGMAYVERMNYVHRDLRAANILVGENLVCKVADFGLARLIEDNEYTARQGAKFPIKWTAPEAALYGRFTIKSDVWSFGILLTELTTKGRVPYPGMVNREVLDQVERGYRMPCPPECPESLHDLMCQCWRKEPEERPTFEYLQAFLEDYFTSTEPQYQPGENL
UniProt P49841: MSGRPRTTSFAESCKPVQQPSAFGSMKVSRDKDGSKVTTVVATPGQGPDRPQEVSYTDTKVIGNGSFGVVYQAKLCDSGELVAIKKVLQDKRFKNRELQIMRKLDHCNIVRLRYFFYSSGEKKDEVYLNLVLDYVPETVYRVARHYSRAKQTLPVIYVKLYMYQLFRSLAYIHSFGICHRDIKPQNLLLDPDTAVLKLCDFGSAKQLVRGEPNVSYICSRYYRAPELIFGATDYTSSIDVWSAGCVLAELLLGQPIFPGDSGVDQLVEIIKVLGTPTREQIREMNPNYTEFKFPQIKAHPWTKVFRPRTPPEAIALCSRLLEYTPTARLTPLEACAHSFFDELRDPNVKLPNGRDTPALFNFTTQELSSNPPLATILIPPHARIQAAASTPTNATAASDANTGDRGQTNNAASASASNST

| SMILES | Ki |
| --- | --- |
| Cc1cc(Nc2nc(-c3ccccc3)nc3cnccc23)n[nH]1 [IV-30, (5-Methyl-2H-pyrazol-3-yl)-(2-phenyl-pyrido[3,4-d]pyrimidin-4-yl)-amine] | < 0.1 µM |
| Cc1cc(Nc2nc(N3CCC(C)CC3)nc(C)c2N)n[nH]1 [IV-7, [5-Amino-6-methyl-2-(4-methylpiperidin-1-yl)-pyrimidin-4-yl]-(5-methyl-2H-pyrazol-3-yl)-amine] | < 0.1 µM |
| c1ccc(-c2nc(Nc3cc(C4CC4)[nH]n3)c3ccncc3n2)cc1 [IV-32, (5-Cyclopropyl-2H-pyrazol-3-yl)-(2-phenyl-pyrido[3,4-d]pyrimidin-4-yl)-amine] | < 0.1 µM |

biological target: activated ERK2 (Homo sapiens, UniProt P28482); test: ERK inhibition assay (spectrophotometric coupled-enzyme assay); type: biochemical; conditions: 10 nM activated ERK2, 65 μM ATP, 200 μM erktide; read-out: Ki value for ERK-2
Procedure: Compounds were assayed for the inhibition of ERK2 by a spectrophotometric coupled-enzyme assay (Fox et al (1998) Protein Sci 7, 2249). In this assay, a fixed concentration of activated ERK2 (10 nM) was incubated with various concentrations of the compound in DMSO (2.5%) for 10 min. at 30° C. in 0.1 M HEPES buffer, pH 7.5, containing 10 mM MgCl2, 2.5 mM phosphoenolpyruvate, 200 μM NADH, 150 μg/mL pyruvate kinase, 50 μg/mL lactate dehydrogenase, and 200 μM erktide peptide. The reaction was initiated by the addition of 65 μM ATP. The rate of decrease of absorbance at […] was monitored. The IC50 was evaluated from the rate data as a function of inhibitor concentration.

| SMILES | Ki |
| --- | --- |
| Cc1cc(Nc2ccnc(N3CCC(C)CC3)n2)n[nH]1 [IV-4, [2-(4-Methylpiperidin-1-yl)-pyrimidin-4-yl]-(5-methyl-2H-pyrazol-3-yl)-amine] | < 1 µM |

biological target: T2, human Src kinase (Homo sapiens, UniProt P12931); test: SRC inhibition assay (radioactivity-based or spectrophotometric assay); type: biochemical; conditions: assay A or B not specified; read-out: Ki value on SRC
T2 construct: full length recombinant human Src kinase; purchased Upstate Biotechnology 14-117; host or cells: baculo viral cells (baculovirus expression system)
Procedure: The compounds were evaluated as inhibitors of human Src kinase using either a radioactivity-based assay or spectrophotometric assay. The compounds were assayed as inhibitors of full length recombinant human Src kinase (from Upstate Biotechnology, cat. no. 14-117) expressed and purified from baculo viral cells. […] P-0275). […] In a typical assay, all the reaction components with the exception of ATP were pre-mixed and aliquoted into assay plate wells. Inhibitors dissolved in DMSO were added to the wells to give a final DMSO concentration of 2.5%. The assay plate was incubated at 30° C. for 10 min before initiating the reaction with ^33P-ATP. After 20 min of reaction, the reactions were quenched with 150 μl of 10% trichloroacetic acid (TCA) containing 20 mM Na3PO4. The quenched samples were then transferred to a 96-well filter plate (Whatman, UNI-Filter GF/F Glass Fiber Filter, cat no. 7700-3310) installed on a filter plate vacuum manifold. Filter plates were washed four times with 10% TCA containing 20 mM Na3PO4 and then 4 times with methanol. 200 μl of scintillation fluid was then added to each well. The plates were sealed and the amount of radioactivity associated with the filters was quantified on a TopCount scintillation counter. The radioactivity incorporated was plotted as a function of the inhibitor concentration. The data was fitted to a competitive inhibition kinetics model to get the Ki for the compound. The ADP produced from ATP by the human recombinant Src kinase-catalyzed phosphorylation of poly Glu-Tyr substrate was quanitified using a coupled enzyme assay (Fox et al (1998) Protein Sci 7, 2249). In this assay one molecule of NADH is oxidised to NAD for every molecule of ADP produced in the kinase reaction. The disappearance of NADH can be conveniently followed at 340 nm. […] In a typical assay, all the reaction components with the exception of ATP were pre-mixed and aliquoted into assay plate wells. Inhibitors dissolved in DMSO were added to the wells to give a final DMSO concentration of 2.5%. […] The absorbance change at 340 nm with time, the rate of the reaction, was monitored on a molecular devices plate reader. The data of rate as a function of the inhibitor concentration was fitted to compettive inhibition kinetics model to get the Ki for the compound.

| SMILES | Ki |
| --- | --- |
| c1ccc(-c2nc(Nc3cc(C4CC4)[nH]n3)c3ccncc3n2)cc1 [IV-32, (5-Cyclopropyl-2H-pyrazol-3-yl)-(2-phenyl-pyrido[3,4-d]pyrimidin-4-yl)-amine] | < 100 nM |

same assay, conditions: lower bound in nM, upper bound in μM; assay A or B not specified; read-out: Ki value for SRC

| SMILES | Ki |
| --- | --- |
| CC(C)(C)OC(=O)NCCCc1cc(Nc2nc(-c3ccccc3)nc3ccccc23)[nH]n1 [III-80, [5-(3-tert-Butoxycarbonylaminoprop-1-yl)-2H-pyrazol-3-yl]-(2-phenyl-quinazolin-4-yl)-amine] | 100 to 1000 nM |
| Cc1cc(Nc2nc(-c3ccccc3)nc3cnccc23)n[nH]1 [IV-30, (5-Methyl-2H-pyrazol-3-yl)-(2-phenyl-pyrido[3,4-d]pyrimidin-4-yl)-amine] | 100 to 1000 nM |
| c1ccc(-c2cc(Nc3nc(-c4ccccc4)nc4ccccc34)[nH]n2)cc1 [III-71, (5-Phenyl-2H-pyrazol-3-yl)-(2-phenyl-quinazolin-4-yl)-amine] | 100 to 1000 nM |
| Cc1cccc(-c2nc(Nc3cc(C)n[nH]3)c3ccccc3n2)c1 [III-50, [2-(3-Methylphenyl)-quinazolin-4-yl]-(5-methyl-2H-pyrazol-3-yl)-amine] | 100 to 1000 nM |
| c1ccc(-c2nc(Nc3ccn[nH]3)c3ccccc3n2)cc1 [III-63, (2-Phenyl-quinazolin-4-yl)-(2H-pyrazol-3-yl)-amine] | 100 to 1000 nM |
| OCc1cc(Nc2nc(-c3ccccc3)nc3ccccc23)[nH]n1 [III-74, (5-Hydroxymethyl-2H-pyrazol-3-yl)-(2-phenyl-quinazolin-4-yl)-amine] | 100 to 1000 nM |
| COC(=O)c1cc(Nc2nc(-c3ccccc3)nc3ccccc23)[nH]n1 [III-73, (5-Methoxycarbonyl-2H-pyrazol-3-yl)-(2-phenyl-quinazolin-4-yl)-amine] | 100 to 1000 nM |
| COCc1cc(Nc2nc(-c3ccccc3)nc3ccccc23)[nH]n1 [III-75, (5-Methoxymethyl-2H-pyrazol-3-yl)-(2-phenyl-quinazolin-4-yl)-amine] | 100 to 1000 nM |
| O=C(O)c1cc(Nc2nc(-c3ccccc3)nc3ccccc23)[nH]n1 [III-72, (5-Carboxy-2H-pyrazol-3-yl)-(2-phenyl-quinazolin-4-yl)-amine] | 100 to 1000 nM |

biological target: T3, GSK-3β (AA 1-420) (Homo sapiens, UniProt P49841); test: Ki determination for the inhibition of GSK-3 (coupled enzyme system); type: biochemical; conditions: 20 μM ATP, 300 μM peptide, 20 nM GSK-3β, 30° C
T3 construct: GSK-3β (AA 1-420)
Procedure: Compounds were screened for their ability to inhibit GSK-3β (AA 1-420) activity using a standard coupled enzyme system (Fox et al. (1998) Protein Sci. 7, 2249). Reactions were carried out in a solution containing 100 mM HEPES (pH 7.5), 10 mM MgCl2, 25 mM NaCl, 300 μM NADH, 1 mM DTT and 1.5% DMSO. Final substrate concentrations in the assay were 20 μM ATP (Sigma Chemicals, St Louis, Mo.) and 300 μM peptide (HSSPHQS(PO3H2)EDEEE, American Peptide, Sunnyvale, Calif.). Reactions were carried out at 30° C. and 20 nM GSK-3β. Final concentrations of the components of the coupled enzyme system were 2.5 mM phosphoenolpyruvate, 300 μM NADH, 30 μg/ml pyruvate kinase and 10 μg/ml lactate dehydrogenase.
An assay stock buffer solution was prepared containing all of the reagents listed above with the exception of ATP and the test compound of interest. The assay stock buffer solution (175 μl) was incubated in a 96 well plate with 5 μl of the test compound of interest at final concentrations spanning 0.002 μM to 30 μM at 30° C. for 10 min. Typically, a 12 point titration was conducted by preparing serial dilutions (from 10 mM compound stocks) with DMSO of the test compounds in daughter plates. The reaction was initiated by the addition of 20 μl of ATP (final concentration 20 μM). Rates of reaction were obtained using a Molecular Devices Spectramax plate reader (Sunnyvale, Calif.) over 10 min at 30° C. The Ki values were determined from the rate data as a function of inhibitor concentration.

| SMILES | Ki |
| --- | --- |
| Cc1cc(Nc2nc(-c3ccccc3)nc3cnccc23)n[nH]1 [IV-30, (5-Methyl-2H-pyrazol-3-yl)-(2-phenyl-pyrido[3,4-d]pyrimidin-4-yl)-amine] | < 0.1 µM |
| Cc1cc(Nc2cc(-c3ccco3)[nH]n2)nc(C2COc3ccccc3O2)n1 (stereo not drawn) [IV-15, [2-(2,3-Dihydro-benzo[1,4]dioxin-2-yl)-6-methyl-pyrimidin-4-yl]-(5-furan-2-yl-2H-pyrazol-3-yl)-amine] | < 0.1 µM |
| CCc1cc(Nc2cc(C)[nH]n2)nc(-c2ccc(C(F)(F)F)cc2)n1 [IV-20, [6-Ethyl-2-(4-trifluoromethyl-phenyl)-pyrimidin-4-yl]-(5-methyl-2H-pyrazol-3-yl)-amine] | < 0.1 µM |
| CCc1cc(Nc2cc(C)[nH]n2)nc(C2COc3ccccc3O2)n1 (stereo not drawn) [IV-16, [2-(2,3-Dihydro-bezo[1,4]dioxin-2-yl)-6-ethyl-pyrimidin-4-yl]-(5-methyl-2H-pyrazol-3-yl)-amine] | < 0.1 µM |
| CCc1cc(Nc2cc(C)[nH]n2)nc(-c2ccc(C)cc2)n1 [IV-25, [6-Ethyl-2-(4-methyl-phenyl)-pyrimidin-4-yl]-(5-methyl-2H-pyrazol-3-yl)-amine] | < 0.1 µM |
| CCc1cc(Nc2cc(C)[nH]n2)nc(-c2ccc(Cl)cc2)n1 [IV-26, [2-(4-Chloro-phenyl)-6-ethyl-pyrimidin-4-yl]-(5-methyl-2H-pyrazol-3-yl)-amine] | < 0.1 µM |
| CCc1cc(Nc2cc(C)[nH]n2)nc(-c2ccccc2)n1 [IV-17, (6-Ethyl-2-phenyl-pyrimidin-4-yl)-(5-methyl-2H-pyrazol-3-yl)-amine] | < 0.1 µM |

From patent US6610677B2, “Pyrazole compounds useful as protein kinase inhibitors” (Vertex Pharmaceuticals Incorporated, priority 2000, dated 2003)
